Among all 360,000 compounds or so, about 7,500 (2.1%) were called active. This list was built around the results that the source calls inconclusive (neither active nor inactive); the mix of calls is not that of the screen. Calls follow the shape of the dose curve; as a rule, active = well fitted inhibition curve with a large enough effect; inconclusive = small, poorly fitted or top-dose-only effect, or effect the other way; inactive = flat fitted curve, though single readings scatter. Where the call is inconclusive, the potency comes from a doubtful curve fit.
assay: Nrf2 qHTS screen for inhibitors; settings: A549 ARE-Fluc reporter, luciferase luminescence, 18-24 h; activity change, negative = inhibition: at 46 µM (top of the series); also: nearly all actives have a fitted effect of over 60% in size
Outline: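 A549 ARE_Fluc cells, 5000/well, 5% FBS OPTI-MEM; compounds in dose-response, 18-24 h at 37 °C/5% CO2; CellTiter-Fluor viability read (Ex 405/Em 525), then BugLite luciferase luminescence = Nrf2 activity.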
% is scaled to controls: 0 for no effect and ±100 for the full control effect; potency is read from the fitted curve at half-maximal effect.

SMILES | Potency | activity change, negative = inhibition
O=C(/C=C/c1c(F)cccc1Cl)Nc1ncccn1 | inconclusive: 23.1 µM [activator, single point] | –
Cc1cccc(NC(=O)NC2CCCCCCC2)c1 | inconclusive: 2.06 µM [activator, full curve] | –
CCOC(=O)c1[nH]c2ccc(OCC)cc2c1NC(=O)CN1CCN(c2ccccn2)CC1 | inconclusive: 20.6 µM [falling, single point] | –
C#CCOC(=O)Nc1cccn(Cc2c(Cl)cccc2Cl)c1=O | inconclusive: 2.59 µM [falling, partial curve, poor fit] | –
Cc1ccc(NC(=S)N(CCCN2CCOCC2)Cc2ccccn2)cc1 | inconclusive: 29.1 µM [activator, partial curve, poor fit] | –
COc1cc(OC)c(C2=NOC(C(=O)NCCc3ccccc3)C2)cc1Cl (configuration not stated) | inconclusive: 25.9 µM [falling, partial curve, poor fit] | –
Cc1cc(C)c2nc(SCc3ccc([N+](=O)[O-])cc3)nc(C)c2c1 | inconclusive: 0.206 µM [falling, full curve, poor fit] | –
COCCn1c(SCC(=O)Nc2ccc(F)c(Cl)c2)nc2c(oc3ccccc32)c1=O | inconclusive: 10.3 µM [falling, partial curve, poor fit] | –
CN(Cc1ccccc1)C(=O)COc1ccc2ccccc2c1 | inconclusive: 3.26 µM [activator, partial curve] | –
C/C(=N\NC(=O)CNC(=O)c1cccs1)c1ccc(Cl)c(Cl)c1 | inconclusive: 29.1 µM [falling, single point] | –
Clc1ccc(-c2csc3ncnc(NCCN4CCOCC4)c23)cc1 | inconclusive: 29.1 µM [falling, single point] | –
Cc1nc2ccn(Cc3cccnc3)c(=O)c2cc1C(=O)Nc1ccc(OC(F)(F)F)cc1 | – | inactive: -28.9%
CCOc1ccc(NS(=O)(=O)c2ccc(C(=O)N(C)CC(=O)Nc3ccc(C)cc3)cc2)cc1 | inconclusive: 25.9 µM [falling, single point] | –
CN(C)C1=NC[C@H](Cc2ccccc2)N1CC1CCCCC1 | inconclusive: 29.1 µM [falling, single point] | –
Cc1ccnc(NC(=O)/C=C/c2cccs2)c1 | inconclusive: 0.366 µM [activator, full curve, poor fit] | –
Cc1nn(C)c(C)c1CN(C)C(=O)c1cc2nc(-c3ccco3)cc(C(F)(F)F)n2n1 | inconclusive: 29.1 µM [falling, single point] | –
COc1ccc(COC(=O)CNC(=O)C2CCCCC2)cc1F | – | inactive: -4.17%
Cc1ccc(/C=C2/Sc3ccccc3N(CC(=O)NCCCOC(C)C)C2=O)cc1 | inconclusive: 29.1 µM [falling, single point] | –
CC(=O)c1ccc(Nc2nc(-c3cccnc3)cs2)cc1 | inconclusive: 2.31 µM [activator, full curve] | –
COc1ccc(CCNC(=S)NC(=O)c2cccc([N+](=O)[O-])c2)cc1OC | – | inactive: -27.9%
CCOC(=O)c1ccc(NC(=O)Nc2ccc3c(c2)OCCO3)cc1 | inconclusive: 10.3 µM [falling, partial curve, poor fit] | –

Record cards, from the list above. Order of values: Potency | activity change, negative = inhibition
`O=C(/C=C/c1c(F)cccc1Cl)Nc1ncccn1` is entered as inconclusive: 23.1 µM [activator, single point] | –
`Cc1nn(C)c(C)c1CN(C)C(=O)c1cc2nc(-c3ccco3)cc(C(F)(F)F)n2n1` is entered as inconclusive: 29.1 µM [falling, single point] | –
`Cc1nc2ccn(Cc3cccnc3)c(=O)c2cc1C(=O)Nc1ccc(OC(F)(F)F)cc1` is entered as – | inactive: -28.9%

(listing goes on)

SMILES | Potency | activity change, negative = inhibition
Cc1ccccc1NC(=O)C(Cl)=C(Cl)Cl | – | inactive: -14.4%
NCCCNc1nc(N)c([N+](=O)[O-])c(NC2CCCCC2)n1 | – | inactive: -104%
COC(=O)CSc1nnc([C@H](Cc2ccccc2)NC(=O)OC(C)(C)C)o1 | inconclusive: 20.6 µM [activator, partial curve, poor fit] | –
COc1ccc(CCNC(=O)Cn2nnc(-c3ccc(C(F)(F)F)cc3)n2)cc1OC | – | inactive: -10.9%
COC(=O)c1nn(-c2ccccc2)c(Cl)c1/C=N/OCc1c(Cl)cccc1Cl | – | inactive: 5.95%
CN(CCc1ccccc1)C(=O)c1ccc(NC(=O)Cc2ccc(NC(=O)C3CCN(C(=O)C4CCCC4)CC3)cc2)cc1 | inconclusive: 5.8 µM [falling, full curve] | –
Cc1ccc(NS(=O)(=O)c2ccc(OCC(=O)Nc3cccc([N+](=O)[O-])c3)c(C)c2)cc1 | active: 20.6 µM | –
CC(C)Oc1ccc(C(=O)/C(=C\c2cccs2)c2nc3ccccc3o2)cc1 | – | inactive: 16.3%
CCCCn1c(-c2ccc(S(=O)(=O)N3CCOCC3)cc2)csc1=Nc1ccccc1 | inconclusive: 6.51 µM [falling, full curve] | –
NC(=O)CS(=O)(=O)c1nc2ccccc2n1CC(=O)N1CCCCC1 | inconclusive: 25.9 µM [falling, single point] | –
CCOC(=O)NC(=O)/C(C#N)=C\NNc1ncc(C(F)(F)F)cc1Cl | inconclusive: 20.6 µM [activator, single point] | –
O=S(=O)(c1ccccc1)N1CCN(c2ncnc3scc(-c4ccccc4)c23)CC1 | inconclusive: 29.1 µM [falling, single point] | –
CC(C)CC(c1nnnn1Cc1ccco1)N1CCN(c2cccc(Cl)c2)CC1 (configuration not stated) | inconclusive: 5.8 µM [falling, partial curve, poor fit] | –
O=C(/C=C/c1ccc2c(c1)OCO2)Nc1nc2ccccc2s1 | inconclusive: 1.46 µM [activator, full curve] | –
CCN(c1cccc(C)c1)S(=O)(=O)c1nnc(NC(=O)c2cccs2)s1 | inconclusive: 3.66 µM [activator, single point] | –
O=C1CC(/C=C/c2ccc(Cl)cc2)=Nc2ccccc2N1 | inconclusive: 3.66 µM [activator, partial curve] | –
CCCc1c(C(=O)N/N=C/c2cccnc2)nnn1-c1nonc1N | – | inactive: -13.3%
CCN(CC)CCC(c1ccc2c(c1)OCO2)c1c(OC)cc(OC)c2ccc(=O)oc12 (configuration not stated) | – | inactive: 7.17%
CCOc1cc(-c2ccccc2)nc(N)n1 | inconclusive: 29.1 µM [activator, single point] | –
COc1cccc(C(=O)NC(=O)Nc2ccc(-c3cc(C(F)(F)F)nn3-c3ccccc3)cc2)c1 | inconclusive: 2.31 µM [falling, partial curve, poor fit] | –
Cc1sc2ncn(CC(=O)Nc3cccc(C(F)(F)F)c3)c(=O)c2c1S(=O)(=O)N1CCC(C)CC1 | – | inactive: -6.33% [at 9.27 µM]
